Results deposited as PubChem BioAssay AID743121 (NCATS, 2013)
The whole screen tested about 26,000 reagents; shown is a random part of them. 167 of all reagents (0.63%) were called active. 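Calls are per gene from RSA p-values that are not deposited; an individual active-marked siRNA can sensitise only weakly.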 The numbers tell different reagents against one gene apart. Not all columns of the deposit are shown.

Aim: 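Genes whose silencing strengthens cell killing by camptothecin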 (primary screen)
System: MDA-MB-231 cells, a human breast cancer line
Knock-down reagent: single siRNA against human genes, 20 nM siRNA (0.8 pmol per well)
Time to read-out: 120 h (drug added 48 h after transfection, read 72 h later)
Treatment: camptothecin 20 nM (about EC30) for 72 h; vehicle 0.1% DMSO in parallel plates
Measured: 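CellTiter-Glo ATP signal, scaled to control siRNA as percent viability; sensitisation given as log2 of untreated divided by camptothecin-treated viability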
Scale: log2 vehicle/camptothecin viability: higher = stronger sensitisation to camptothecin; viability with camptothecin: higher = more viable cells
Rule for the call: 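Active genes have an RSA gene-level p-value below 0.001, computed from the ratios of their separate siRNAs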

RORA #1
- log2 vehicle/camptothecin viability: -0.0243
- viability with camptothecin (% of control): 39.4
- activity call: inactive

RORA #2
- log2 vehicle/camptothecin viability: 0.00669
- viability with camptothecin (% of control): 97.9
- activity call: inactive

RORA #3
- log2 vehicle/camptothecin viability: -0.0788
- viability with camptothecin (% of control): 114
- activity call: inactive

RORA #4
- log2 vehicle/camptothecin viability: -0.00797
- viability with camptothecin (% of control): 94.9
- activity call: inactive

CDC16 #1
- log2 vehicle/camptothecin viability: -0.378
- viability with camptothecin (% of control): 105
- activity call: inactive

CDC16 #2
- log2 vehicle/camptothecin viability: 0.546
- viability with camptothecin (% of control): 51.5
- activity call: inactive

CDC16 #3
- log2 vehicle/camptothecin viability: -0.0152
- viability with camptothecin (% of control): 86.5
- activity call: inactive

CDC16 #4
- log2 vehicle/camptothecin viability: -0.216
- viability with camptothecin (% of control): 59.6
- activity call: inactive

GLI2 #1
- log2 vehicle/camptothecin viability: -0.796
- viability with camptothecin (% of control): 108
- activity call: inactive

GLI2 #2
- log2 vehicle/camptothecin viability: -0.199
- viability with camptothecin (% of control): 77.7
- activity call: inactive

GLI2 #3
- log2 vehicle/camptothecin viability: 0.0539
- viability with camptothecin (% of control): 84.9
- activity call: inactive

GLI2 #4
- log2 vehicle/camptothecin viability: -0.0409
- viability with camptothecin (% of control): 58.9
- activity call: inactive

Entries above whose gene name starts with R or r:
RORA #1
- log2 vehicle/camptothecin viability: -0.0243
- viability with camptothecin (% of control): 39.4
- activity call: inactive

RORA #2
- log2 vehicle/camptothecin viability: 0.00669
- viability with camptothecin (% of control): 97.9
- activity call: inactive

RORA #3
- log2 vehicle/camptothecin viability: -0.0788
- viability with camptothecin (% of control): 114
- activity call: inactive

RORA #4
- log2 vehicle/camptothecin viability: -0.00797
- viability with camptothecin (% of control): 94.9
- activity call: inactive

The listing continues:
CD8A #1
- log2 vehicle/camptothecin viability: -0.197
- viability with camptothecin (% of control): 106
- activity call: inactive

CD8A #2
- log2 vehicle/camptothecin viability: 0.244
- viability with camptothecin (% of control): 87.8
- activity call: inactive

CD8A #3
- log2 vehicle/camptothecin viability: 0.207
- viability with camptothecin (% of control): 79.9
- activity call: inactive

CD8A #4
- log2 vehicle/camptothecin viability: 0.0606
- viability with camptothecin (% of control): 81.3
- activity call: inactive

SERPINA3 #1
- log2 vehicle/camptothecin viability: -0.241
- viability with camptothecin (% of control): 109
- activity call: inactive

SERPINA3 #2
- log2 vehicle/camptothecin viability: 0.0192
- viability with camptothecin (% of control): 50.1
- activity call: inactive

SERPINA3 #3
- log2 vehicle/camptothecin viability: 0.0101
- viability with camptothecin (% of control): 106
- activity call: inactive

CBLB #1
- log2 vehicle/camptothecin viability: -0.302
- viability with camptothecin (% of control): 55.3
- activity call: inactive

CBLB #2
- log2 vehicle/camptothecin viability: -0.308
- viability with camptothecin (% of control): 82.6
- activity call: inactive

CBLB #3
- log2 vehicle/camptothecin viability: -0.119
- viability with camptothecin (% of control): 101
- activity call: inactive

CBLB #4
- log2 vehicle/camptothecin viability: 0.0139
- viability with camptothecin (% of control): 63.3
- activity call: inactive

UHMK1 #1
- log2 vehicle/camptothecin viability: -0.0604
- viability with camptothecin (% of control): 117
- activity call: inactive

UHMK1 #2
- log2 vehicle/camptothecin viability: 0.0387
- viability with camptothecin (% of control): 106
- activity call: inactive

UHMK1 #3
- log2 vehicle/camptothecin viability: 0.125
- viability with camptothecin (% of control): 96.9
- activity call: inactive

UHMK1 #4
- log2 vehicle/camptothecin viability: -0.0109
- viability with camptothecin (% of control): 108
- activity call: inactive
